Laboratory results from patent US20030219400A1 (priority 2002, published 2003).
For at least one compound, name, drawing or mass did not settle the structure.

Test system: PLDS patients
Format: in vivo, human
Conditions: pretreatment with pioglitazone; 12 PLDS patients

SMILES: CCc1ccc(CCOc2ccc(CC3SC(=O)NC3=O)cc2)nc1 (centres unmarked) [pioglitazone]
- intensification associated with CSM use: prevent the intensification associated with CSM use
- plasma levels of TNF alpha: reduce plasma levels of TNF alpha
